Assay results published in PMC7705682.

Amino acid sequences for entries named in this document (tags omitted).
UniProt P62140: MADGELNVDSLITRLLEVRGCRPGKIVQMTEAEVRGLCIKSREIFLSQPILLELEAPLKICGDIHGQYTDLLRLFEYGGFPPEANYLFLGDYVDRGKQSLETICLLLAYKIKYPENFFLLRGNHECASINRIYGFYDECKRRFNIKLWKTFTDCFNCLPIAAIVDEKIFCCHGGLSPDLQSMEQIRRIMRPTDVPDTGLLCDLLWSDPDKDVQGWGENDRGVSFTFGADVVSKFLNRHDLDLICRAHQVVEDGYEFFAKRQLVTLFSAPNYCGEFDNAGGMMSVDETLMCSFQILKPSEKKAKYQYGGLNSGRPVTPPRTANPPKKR

Target: T1, SH2D4A-myc-Flag (tetracycline-induced, stable HLF cells) (UniProt Q9H788)
T1 sequence: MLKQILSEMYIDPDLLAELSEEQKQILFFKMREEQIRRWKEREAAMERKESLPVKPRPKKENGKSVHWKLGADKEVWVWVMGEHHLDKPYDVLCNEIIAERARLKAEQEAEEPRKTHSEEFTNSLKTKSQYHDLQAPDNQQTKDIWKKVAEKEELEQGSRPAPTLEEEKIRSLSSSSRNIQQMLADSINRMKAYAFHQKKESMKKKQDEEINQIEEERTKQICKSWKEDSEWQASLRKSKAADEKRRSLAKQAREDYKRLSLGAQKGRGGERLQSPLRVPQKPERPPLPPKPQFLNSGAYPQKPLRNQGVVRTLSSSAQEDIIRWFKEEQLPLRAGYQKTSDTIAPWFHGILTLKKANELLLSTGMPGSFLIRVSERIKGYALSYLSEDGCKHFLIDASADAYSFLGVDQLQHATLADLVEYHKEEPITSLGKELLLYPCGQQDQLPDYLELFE
Experiment: affinity purification with mass spectrometry; Lysate (NP-40 buffer) of HLF cells with tetracycline-induced Flag-tagged SH2D4A, precipitated with Flag M2 antibody on IP-Matrix overnight at 4 °C; eluate analysed by LC-MS/MS; uninduced cells as control

Substance: protein phosphatase 1 catalytic subunit beta (PPP1CB), endogenous in HLF cells (from UniProt P62140 1-327) (enzyme)
- binding: binds

Results are given in words; binding and its absence hold for the method and conditions named. In cells and extracts the contact can be indirect. These calls come from enrichment with a bait or labelling near it, and not all partners need be listed. Where a sequence is shown, tags or fusion partners need not be part of it.
